# Patent publication US7741124B2, “Detection procedures for fibrinogen and/or fibrinogen derivatives” (priority 2003, dated 2010)
# System: β2 fraction (fibrinogen) of plasma
# Assay: Electrophoresis of plasma that had been incubated with vancomycin
# Assay type: biochemical
# Protocol: 950 μl P-Pool were incubated with 50 μl 0-200 mM (0-10 mM final conc.) vancomycin for 5 min (RT). Then electrophoreses of the samples and of the solubilized precipitate of 2.10. were performed and the total protein concentrations in the treated samples were determined.
smiles,measurement,setting,value
CN[C@H](CC(C)C)C(=O)N[C@H]1C(=O)N[C@@H](CC(N)=O)C(=O)N[C@H]2C(=O)N[C@H]3C(=O)N[C@H](C(=O)N[C@H](C(=O)O)c4cc(O)cc(O)c4-c4cc3ccc4O)[C@H](O)c3ccc(c(Cl)c3)Oc3cc2cc(c3O[C@@H]2O[C@H](CO)[C@@H](O)[C@H](O)[C@H]2O[C@H]2C[C@](C)(N)[C@H](O)[C@H](C)O2)Oc2ccc(cc2Cl)[C@H]1O [vancomycin],total protein concentration,0.29 mM vancomycin,59.1 g/L
same,total protein concentration,0.44 mM vancomycin,58.6 g/L
same,total protein concentration,0.66 mM vancomycin,59.1 g/L
same,total protein concentration,0.99 mM vancomycin,58.4 g/L
same,total protein concentration,1.48 mM vancomycin,57.0 g/L
same,total protein concentration,2.22 mM vancomycin,57.8 g/L
same,"β2 peak, in words",5 mM vancomycin in plasma,disappears completely
